We go through 5 compounds from the supplement of paper PMC4604168 (melanoma cell lines).

This is one part of the list. Many values rest on one well or one pass, so single values are uncertain.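 The apoptosis fraction was the count of cleaved-PARP antibody-stained nuclei relative to all DNA-stained nuclei, imaged in 1,536-well plates. Screening doses were set so most cells survived, and baseline and induced cleaved-PARP levels vary greatly across cell lines.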

For the test, the system named is WM451Lu. The test can be described thus: cleaved PARP positive nuclei fraction relative to DMSO control; melanoma cells; higher = more apoptosis. As to conditions: library dose: low library concentration; 72 h.
For `O=c1[nH]nc(Sc2ncc([N+](=O)[O-])s2)n1-c1ccc2c(c1)OCCO2` + Cn1cnc2c(F)c(Nc3ccc(Br)cc3Cl)c(C(=O)NOCCO)cc21 [selumetinib] (first compound 0.2 µM, partner dose 0.015 µM), the “cleaved PARP positive nuclei fraction” value stood at 43.3%.
With `CC[C@]1(O)C[C@H]2CN(CCc3c([nH]c4ccccc34)[C@@](C(=O)OC)(c3cc4c(cc3OC)N(C=O)[C@H]3[C@@](O)(C(=O)OC)[C@H](OC(C)=O)[C@]5(CC)C=CCN6CC[C@]43[C@@H]65)C2)C1` [vincristine] + CS(=O)(=O)c1ccc(C(=O)Nc2ccc(Cl)c(-c3ccccn3)c2)c(Cl)c1 [vismodegib] (first compound 0.0001 µM, partner dose 1 µM) the figure was 118%; with `O=c1[nH]nc(Sc2ncc([N+](=O)[O-])s2)n1-c1ccc2c(c1)OCCO2` + Nc1ccn([C@@H]2O[C@H](CO)[C@@H](O)C2(F)F)c(=O)n1 [gemcitabine] (first compound 0.2 µM, partner dose 0.0004 µM), 200%; with `CCCCCCCCCCCCCCCCCCOP(=O)([O-])OC1CC[N+](C)(C)CC1` [Perifosine] + Cc1cc(Nc2cc(N3CCN(C)CC3)nc(/C=C/c3ccccc3)n2)n[nH]1 [ENMD2076] (first compound 0.4 µM, partner dose 0.04 µM), 78.1%.
The result for `O=C(Nc1cc(C(F)(F)F)cc(C(F)(F)F)c1)c1cc(Cl)ccc1O` + Cn1cnc2c(F)c(Nc3ccc(Br)cc3Cl)c(C(=O)NOCCO)cc21 [selumetinib] (first compound 0.016 µM, partner dose 0.015 µM) reads 270%.
